According to the supplement of paper PMC11348887:
Counter-ions that a name gives are not always drawn. The list shows a part of the results. Small differences around the control level are noise.

What was measured:
Details in all cases: 5 µM; treatment: days 7-14 after plating, readout day 21
[1] = test system: hPSC-derived cortical neurons (WA09); assay: nucleus area z-score vs screen plate; higher = larger nuclei (more mature)
[2] = test system: hPSC-derived cortical neurons (WA09); assay: total neurite length per nucleus (MAP2) z-score; higher = more neurite growth
[3] = test system: hPSC-derived cortical neurons (WA09); assay: nucleus roundness z-score vs screen plate; higher = rounder nuclei (more mature)
[4] = test system: hPSC-derived cortical neurons (WA09); assay: KCl-induced FOS+/EGR-1+ double-positive nuclei fraction z-score (KCl minus unstimulated); higher = stronger activity-induced IEG response

Structure (SMILES)	nucleus area z-score [1]	total neurite length per nucleus (z-score) [2]	nucleus roundness z-score [3]	KCl-induced FOS+/EGR-1+ double-positive nuclei fraction z-score [4]
O=C(O)C1=C[C@@H](O)[C@@H](O)[C@H](O)C1 [Shikimic Acid]	0.51	0.472	-0.384	-0.159
N[C@@H](Cc1cc(I)c(Oc2cc(I)c(O)c(I)c2)c(I)c1)C(=O)O [L-Thyroxine]	1.85	-0.309	0.941	0.0531
Cc1ccc2c(=O)c3cccc(CC(=O)O)c3oc2c1C [DMXAA (Vadimezan)]	0.112	0.284	0.0274	0.195
CNC1CCCN(c2c(F)cc3c(=O)c(C(=O)O)cn(C4CC4)c3c2OC)C1 (stereo not drawn) [Balofloxacin]	-0.355	-0.0465	0.626	0.387
O=C(O)CCc1nc2ccccc2[nH]1 [Procodazole]	1.09	0.339	0.501	1.1
CNC(=O)c1ccccc1Oc1nc(Nc2cc(OC)c(OC)c(OC)c2)ncc1Br	-0.85	0.775	0.0394	-0.525
Nc1c(Br)cc(Br)cc1CN[C@H]1CC[C@H](O)CC1 [Ambroxol HCl]	0.642	-1.57	-1.23	0.348
COC(=O)C1=C(C)NC(C)=C(C(=O)OC2CCCN(Cc3ccccc3)C2)C1c1cccc([N+](=O)[O-])c1 (stereo not drawn) [Benidipine HCl]	-6.04	-2.31	-2.96	-0.391
N#Cc1c(Oc2ccc(F)c(NC(=O)Cc3cccc(C(F)(F)F)c3)c2)ccc2nc(NC(=O)C3CC3)sc12	0.681	0.703	0.623	-1.17
COc1cc2c(Oc3ccc(NC(=O)C4(C(=O)Nc5ccc(F)cc5)CC4)cc3F)ccnc2cc1OCCCN1CCOCC1	-3.61	-0.446	-1.73	-1.65
CCN(CCCOc1ccc2c(Nc3cc(CC(=O)Nc4cccc(F)c4)[nH]n3)ncnc2c1)CCOP(=O)(O)O [Barasertib (AZD1152-HQPA)]	1.74	0.477	0.564	-0.312
N=C(N)c1ccc(N=NNc2ccc(C(=N)N)cc2)cc1 [Diminazene Aceturate]	-0.415	0.447	-1.27	-0.304
CCCc1nn(C)c2c(=O)[nH]c(-c3cc(S(=O)(=O)N4CCN(C)CC4)ccc3OCC)nc12 [Sildenafil]	2.31	0.685	-0.0355	0.438
CCCCCCCCCCCCCCCC(=O)O[C@@H]1[C@@H](O)[C@@H](O)[C@@H]([C@H](NC(=O)[C@@H]2C[C@@H](CCC)CN2C)[C@H](C)Cl)O[C@@H]1SC [Clindamycin palmitate HCl]	-0.382	-2.5	-3.3	-1.56
CCOC(=O)OC(C)OC1=C(C(=O)Nc2ccccn2)N(C)S(=O)(=O)c2ccccc21 (stereo not drawn) [Ampiroxicam]	0.965	0.0656	-0.52	-0.248
COc1ccccc1OCC(O)CO (stereo not drawn) [Guaifenesin]	-0.136	0.468	0.485	0.285

Structure (SMILES)	nucleus area z-score [1]	total neurite length per nucleus (z-score) [2]	nucleus roundness z-score [3]	KCl-induced FOS+/EGR-1+ double-positive nuclei fraction z-score [4]
Oc1ccc(Cl)c2cccnc12 [Cloxiquine]	0.797	-2.88	-2.47	-0.113
Nc1nc(=O)n([C@@H]2CS[C@H](CO)O2)cc1F [Emtricitabine]	-0.416	0.349	0.713	1.15
NS(=O)(=O)Cc1noc2ccccc12 [Zonisamide]	0.346	0.585	0.0538	0.576
N=C(N)NS(=O)(=O)c1ccc(N)cc1 [Sulfaguanidine]	0.061	1.2	1.26	1.01
O=C(C=Cc1ccccc1)NC(NC(=S)Nc1ccc(Cl)cc1)C(Cl)(Cl)Cl (stereo not drawn)	0.75	0.818	0.00293	1.23
COC(=O)N(C)c1c(N)nc(-c2nn(Cc3ccccc3F)c3ncccc23)nc1N [Riociguat (BAY 63-2521)]	0.367	0.68	0.613	1.17
C#Cc1cccc(Nc2ncnc3cc4c(cc23)OCCOCCOCCO4)c1 [Icotinib]	-0.0216	0.512	0.708	0.108
CCc1cc2c(cc1CC)CC(NC[C@H](O)c1ccc(O)c3[nH]c(=O)ccc13)C2 [Indacaterol Maleate]	0.0181	-0.4	0.0633	-0.0019
CCS(=O)(=O)N1CCN(c2ccc(Nc3ncc(C(N)=O)c(NC4CC4)n3)cc2)CC1	5.24	5.17	1.7	0.683
CCCc1nc(C)c2c(=O)nc(-c3cc(S(=O)(=O)N4CCN(CC)CC4)ccc3OCC)[nH]n12 [Vardenafil HCl Trihydrate]	0.601	0.867	0.143	0.765
CNc1ncc2cc(-c3cc(NC(=O)NCCC(C)(C)C)c(F)cc3C)c(C)nc2n1	0.184	-0.0903	-1.88	-0.208
Nc1ccc(S(=O)(=O)Nc2ccccn2)cc1 [Sulfapyridine]	-0.384	-0.172	0.245	-0.495
CN(C)CCCNC(=O)c1ccc(-c2cc(O)c3ncccc3c2)cc1	1	1.54	0.82	0.537
CNC(=O)c1cccc(-c2ccc3c(N4CCOC[C@@H]4C)nc(N4CCOC[C@@H]4C)nc3n2)c1	-4.77	-1.36	-2.7	-0.506
Clc1ccc(NN=C(c2ccccc2)c2ccccn2)nc1	-9.61	-2.59	-5.24	1.12
Cc1cc2c(cc1CC(=O)c1sccc1S(=O)(=O)Nc1onc(C)c1Cl)OCO2 [Sitaxentan sodium]	2.41	-1.56	-1.41	-0.407

Taken from above:
nucleus area z-score [1] with Cc1cc2c(cc1CC(=O)c1sccc1S(=O)(=O)Nc1onc(C)c1Cl)OCO2 [Sitaxentan sodium] reads 2.41
nucleus roundness z-score [3] with CCCCCCCCCCCCCCCC(=O)O[C@@H]1[C@@H](O)[C@@H](O)[C@@H]([C@H](NC(=O)[C@@H]2C[C@@H](CCC)CN2C)[C@H](C)Cl)O[C@@H]1SC [Clindamycin palmitate HCl] reads -3.3
